{
  "source": "the supplement of paper PMC8104966",
  "note": "Several values for one entry are separate records, joined by “and”; a condition that tells them apart may be missing. Identical values can stand only once. This is one part of the list. Single values are uncertain here, since repeats match poorly.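 Fusion between ACE2-bearing and full-length-spike-bearing U2OS cells was measured by imaging as the percentage of nuclei with both cell types' fluorescent markers. An inhibitory hit is a non-toxic compound whose fusion z-score is below -3, more than three standard deviations beneath the plate's DMSO wells.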",
  "data": [
    {"tested_on": "U2OS ACE2 x SARS-CoV-2 spike co-culture", "assay": "cell-cell fusion (fraction fused) z-score vs plate DMSO control; higher = more fusion", "conditions": "30 µM; 5 h; toxicity class: non-toxic, passed QC", "values": [
      {"smiles": "CCCNS(=O)(=O)Nc1ncnc(OCCOc2ncc(Br)cn2)c1-c1ccc(Br)cc1", "note": "[Macitentan]", "cell-cell fusion (z-score)": "inactive: 0.312"},
      {"smiles": "CC(C)(C)NCC(O)COc1nsnc1N1CCOCC1.O=C(O)/C=C\\C(=O)O", "note": "(stereo not drawn) [S(-)-Timolol maleate]", "cell-cell fusion (z-score)": "inactive: 1.38"},
      {"smiles": "C[C@@H]1CCN(C(=O)C(CCCN=C(N)N)NS(=O)(=O)c2cccc3c2NC[C@H](C)C3)C(C(=O)O)C1.O", "note": "(stereo not given in full) [Argatroban monohydrate]", "cell-cell fusion (z-score)": "inactive: 1.65"},
      {"smiles": "C=C(C)c1cc2cc(C(C)=O)c(O)cc2o1", "cell-cell fusion (z-score)": "inactive: 1.81"},
      {"smiles": "Cc1ccc(S(=O)(=O)N[C@@H](Cc2ccccc2)C(=O)CCl)cc1", "note": "[N-p-Tosyl-L-phenylalanine chloromethyl ketone]", "cell-cell fusion (z-score)": "inactive: 1.32"},
      {"smiles": "O=C(O)c1nn(Cc2ccc(Cl)cc2Cl)c2ccccc12", "note": "[Lonidamine]", "cell-cell fusion (z-score)": "inactive: 0.986"},
      {"smiles": "CCCN1CCCC[C@H]1C(=O)Nc1c(C)cccc1C", "note": "[Ropivacaine]", "cell-cell fusion (z-score)": "inactive: 0.417"},
      {"smiles": "O=C1O[C@H](CO)[C@@H](O)[C@H](O)[C@H]1O", "note": "[Delta-Gluconolactone]", "cell-cell fusion (z-score)": "inactive: 2.44"},
      {"smiles": "CC[N+](C)(C)c1cccc(O)c1.[Cl-]", "note": "[Edrophonium chloride]", "cell-cell fusion (z-score)": "inactive: 3.89"},
      {"smiles": "CC[N+](C)(C)c1cccc(O)c1.[Cl-]", "cell-cell fusion (z-score)": "inactive: 1.82"},
      {"smiles": "O=c1cc(N2CCOCC2)oc2c(-c3cccc4c3sc3ccccc34)cccc12", "cell-cell fusion (z-score)": "inactive: 0.84 and inactive: 1.91"},
      {"smiles": "C#C[C@]1(O)CC[C@H]2[C@@H]3CCc4cc(O)ccc4[C@H]3CC[C@@]21C", "note": "[Ethynyl estradiol]", "cell-cell fusion (z-score)": "inactive: 2.4"},
      {"smiles": "CC(=O)OC1CCC2(C)C3CC(=O)C4(C)C(CC5OC6(CCC(C)CO6)[C@@H](C)C54)C3CC[C@H]2C1", "note": "(stereo not given in full)", "cell-cell fusion (z-score)": "inactive: 2.07"},
      {"smiles": "CC(C)(C)OC(=O)NC1[C@H]2CNC[C@@H]12", "note": "(stereo not given in full)", "cell-cell fusion (z-score)": "inactive: 2.47"},
      {"smiles": "Cc1cccc(/C=C/c2ccccc2)n1", "cell-cell fusion (z-score)": "inactive: 2.75"},
      {"smiles": "C#C[C@]1(O)CCC2C3CCc4cc(O)ccc4C3CC[C@@]21C", "note": "(stereo not given in full)", "cell-cell fusion (z-score)": "active: -3.18"},
      {"smiles": "CN1CCC2(CCN3CCc4c(oc5ccccc45)C3C2)N(C)C1=O.Cl", "note": "(stereo not given)", "cell-cell fusion (z-score)": "inactive: 2.15"},
      {"smiles": "C[C@H]1OC(O[C@H]2[C@@H](O)CC(O[C@H]3[C@@H](O)C[C@H](O[C@H]4CC[C@]5(C)C6CC[C@]7(C)[C@@H](C8=CC(=O)OC8)[C@@H](O)C[C@]7(O)[C@@H]6CC[C@@H]5C4)O[C@@H]3C)O[C@@H]2C)C[C@H](O)C1O", "note": "(stereo not given in full)", "cell-cell fusion (z-score)": "inactive: 1.96"},
      {"smiles": "NCCCNCCCCNCCCN", "cell-cell fusion (z-score)": "inactive: 2.53"},
      {"smiles": "N[C@H](C(=O)O)c1cc(O)cc(O)c1", "note": "[(S)-3,5-Dihydroxyphenylglycine]", "cell-cell fusion (z-score)": "inactive: 2.39"}
    ]}
  ]
}
